Reference: paper PMC10816710
These are yes or no findings as the source states them, for the method shown. In cells and extracts the contact can be indirect. Some entries that bind do so weakly or less than the wild type.

By UniProt entry, the sequences of proteins in these tests, tags left out.
UniProt P27323: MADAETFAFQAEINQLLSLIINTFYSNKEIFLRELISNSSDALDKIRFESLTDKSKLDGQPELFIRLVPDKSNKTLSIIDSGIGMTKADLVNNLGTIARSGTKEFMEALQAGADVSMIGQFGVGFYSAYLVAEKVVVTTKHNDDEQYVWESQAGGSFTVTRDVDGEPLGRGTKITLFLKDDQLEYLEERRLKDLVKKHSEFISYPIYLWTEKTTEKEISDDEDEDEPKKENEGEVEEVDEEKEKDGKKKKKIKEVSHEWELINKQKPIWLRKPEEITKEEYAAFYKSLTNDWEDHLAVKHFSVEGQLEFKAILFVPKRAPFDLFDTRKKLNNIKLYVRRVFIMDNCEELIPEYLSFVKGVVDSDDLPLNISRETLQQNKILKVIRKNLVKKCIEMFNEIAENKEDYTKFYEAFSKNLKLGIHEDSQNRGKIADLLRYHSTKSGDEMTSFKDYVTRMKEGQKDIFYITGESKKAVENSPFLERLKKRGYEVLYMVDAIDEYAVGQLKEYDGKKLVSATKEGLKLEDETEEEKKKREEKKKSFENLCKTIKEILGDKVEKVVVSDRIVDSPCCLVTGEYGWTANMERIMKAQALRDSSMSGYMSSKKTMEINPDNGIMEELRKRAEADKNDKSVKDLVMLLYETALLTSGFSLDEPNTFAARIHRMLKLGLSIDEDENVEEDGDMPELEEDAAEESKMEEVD
UniProt P55737: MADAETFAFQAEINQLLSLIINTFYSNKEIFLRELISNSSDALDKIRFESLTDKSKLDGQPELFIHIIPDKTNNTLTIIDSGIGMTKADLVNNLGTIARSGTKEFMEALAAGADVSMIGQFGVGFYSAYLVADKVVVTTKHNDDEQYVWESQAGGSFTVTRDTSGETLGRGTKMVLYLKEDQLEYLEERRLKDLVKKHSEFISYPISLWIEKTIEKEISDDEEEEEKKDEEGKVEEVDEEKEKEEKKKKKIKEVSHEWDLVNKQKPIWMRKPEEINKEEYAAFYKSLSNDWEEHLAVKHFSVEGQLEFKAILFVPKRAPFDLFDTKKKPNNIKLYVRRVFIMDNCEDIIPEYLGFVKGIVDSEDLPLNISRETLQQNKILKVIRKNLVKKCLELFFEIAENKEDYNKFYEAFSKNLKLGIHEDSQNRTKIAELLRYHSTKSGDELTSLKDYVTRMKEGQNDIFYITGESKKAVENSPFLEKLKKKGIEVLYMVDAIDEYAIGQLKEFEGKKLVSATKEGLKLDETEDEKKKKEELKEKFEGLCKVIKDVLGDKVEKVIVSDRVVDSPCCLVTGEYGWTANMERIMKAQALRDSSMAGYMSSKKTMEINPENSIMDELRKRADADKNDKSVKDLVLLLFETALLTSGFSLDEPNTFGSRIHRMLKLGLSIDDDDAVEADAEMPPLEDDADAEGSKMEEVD

Target: T1, APRF1–YFPn (Arabidopsis thaliana) (UniProt Q9LYK6)
T1 sequence: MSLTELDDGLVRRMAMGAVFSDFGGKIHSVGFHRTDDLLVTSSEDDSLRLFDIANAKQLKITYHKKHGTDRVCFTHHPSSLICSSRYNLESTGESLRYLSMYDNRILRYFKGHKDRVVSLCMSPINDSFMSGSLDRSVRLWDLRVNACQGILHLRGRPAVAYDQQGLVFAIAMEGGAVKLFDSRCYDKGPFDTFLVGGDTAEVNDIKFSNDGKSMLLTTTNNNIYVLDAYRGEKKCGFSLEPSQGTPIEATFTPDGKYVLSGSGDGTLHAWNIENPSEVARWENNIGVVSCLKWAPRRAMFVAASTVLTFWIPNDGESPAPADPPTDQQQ
Assay: split reporter; BiFC with the pSPYNE/pSPYCE vectors in N. benthamiana leaf epidermal cells, observed 48–72 h after Agrobacterium infiltration; empty YFPc or YFPn vectors as negative controls

| binding | Substance |
| --- | --- |
| binds | HSP90.1–YFPc (from UniProt P27323 1-700) |
| binds | HSP90.2–YFPc (from UniProt P55737 1-699) |
